Structures are written as SMILES. This is one part of the list. Shown are side measurements of this screen, not its main read-out; they come without a call. The list favours compounds with an active or inconclusive main result. Potencies come from curve fits of mixed quality, noted in brackets.

The nature of this assay: Cell signaling CRE-BLA (Fsk stim). To be noted: CHO CRE-bla reporter (cAMP response element driving beta-lactamase), forskolin EC10, beta-lactamase ratio; measured here: 460 nm blue channel. An excerpt: NIH Molecular Libraries Screening Centers Network [MLSCN]
NIH Chemical Genomics Center [NCGC]
Assay Provider: Marshall W. Nirenberg, U.S. National heart lung & blood institute
Memories persist for different lengths of time, from seconds or minutes to a lifetime. There are two kinds of memory: short-term memory (STM) and long-term memory (LTM). STM lasts for minutes to hours, which maybe mediated by modifications of molecules involved in synaptic functions. LTM lasts for days or longer, and may be due to the formation of new synapses or restructuring of existing synapses. LTM, but not STM, requires gene transcription and synthesis of proteins. CREB (cyclic-AMP Responsive Element Binding Protein) is one of the candidates plays an important role for enhancement of some types of LTM. CREB, a family of transcription factors, regulates the transcription of genes containing cAMP Responsive Elements (CRE). CRE is a nucleotide sequence often found in the promoter regions of genes that are binding sites for CREB.
Using a beta-lactamase reporter-gene under control of cAMP responsive element, a cell-based assay [CellSensor(TM) CRE-bla CHO developed by Invitrogen Corp.] was used to measure forskolin-induced signaling. Library compounds were measured for their ability to modulate positively or negatively the action of EC10 NKH 477, a water soluble forskolin, on reporter gene activity. Compounds were screened in a titration series in 1536-well format. Positive and negative modulators were identified based on the AC50 values derived from the screening data.
NCGC Assay Protocol Summary
2000 cells/5uL in Opti-MEM medium containing 0.5% dialyzed FBS, 0.1 mM NEAA, 1 mM sodium pyruvate and 10 mM HEPES was dispensed into 1536-well plates and cells were cultured at 37 degrees Celsius overnight. […] And then the plates were incubated at 37 degrees Celsius for 3 hours. 1 uL of CCF4-dye mixture was added to each well. After incubated at room temperature for 2 hours the plates were measured on an EnVision plate reader at Excitation 405nm, Emission1=460nm and Emission 2=530nm. The %Activity was determined from the ratio of 460nm/530nm.
Keywords: NIH Roadmap, MLSCN, MLSMR, qHTS, NCGC, CRE, beta-lactamase reporter-gene assay.
For `CCOC(=O)c1[nH]c(CSc2nnnn2-c2ccccc2C)c(C(=O)OCC)c1C`, the AC50 – broadly, the concentration at which the activity in the assay is half-maximal – is 25.1 µM [rising, single point].
As to `CC1(c2ccccc2)CC(c2ccccc2)=Nc2nonc2N1` (stereo unspecified), the AC50 is 3.98 µM [falling, full curve].
For the molecule `CC(=O)c1cccc(NC(=O)c2cc3nc(C)cc(C)n3n2)c1`, the AC50 was 10 µM [rising, partial curve].
For `COc1ccccc1N1CCN(CC(=O)c2c(C)[nH]c3cc(C)ccc23)CC1` the value was 5.01 µM [falling, partial curve, poor fit]; for `COc1c(Br)cc2c(C)c(C(=O)N3CCOCC3)oc2c1Br`, 12.6 µM [rising, partial curve]; for `CCOc1ccc2[nH]c(=O)c(CN(Cc3cccnc3)C(=O)Nc3ccccc3OC)cc2c1`, 12.6 µM [rising, single point].
For `CN1CCN(c2ncc3nc(-c4cc(F)cc(F)c4)c(=O)n(CCC#N)c3n2)CC1` the value was 6.31 µM [rising, partial curve].
Next, `NS(=O)(=O)c1cccc2c1c([N+](=O)[O-])cc1[nH]c(=O)c(=O)[nH]c12`: 31.6 µM [falling, single point]; `COc1ccc2cc3cc(C(=O)NCCN4CCc5ccccc5C4)oc3nc2c1`: 0.794 µM [rising, full curve]; `Cc1noc(C)c1C(=O)NCc1ccco1`: 7.94 µM [falling, partial curve].
In the case of `Cc1ccc(-c2noc(CCC(=O)Nc3cccc(C#N)c3)n2)cc1`, the AC50 was 0.00398 µM [falling, full curve, poor fit].
Next, `CC1CCCCN1C(=O)c1cnn2c(C(F)(F)F)cc(-c3ccco3)nc12` (stereo unspecified): 12.6 µM [rising, single point].
For `CCC(Oc1ccccc1)C(=O)Nc1ccc(-c2nnc(-c3ccco3)o2)cc1` (stereo unspecified) the value was 12.6 µM [rising, single point]; for `COC(=O)C1=C(C)NC(C)=C(C(=O)OC)C1C(=O)OCCN1C(=O)c2ccccc2C1=O`, 5.01 µM [falling, single point].
For `CCNc1ncc2nc(-c3cc(F)cc(F)c3)c(=O)n(C3CC3)c2n1` the value was 3.16 µM [rising, full curve]; for `COC(=O)[C@@]1(Cc2ccccc2)[C@H]2c3cc(C(=O)N4CCCC4)n(Cc4ccc(O)c(OC)c4)c3C[C@H]2CN1C(=O)c1ccccc1`, 12.6 µM [rising, partial curve].
As to `N#Cc1c(SCC(N)=O)nc2c(c1-c1ccc(O)cc1)CCCC2`, the AC50 was 10 µM [rising, partial curve].
For `COc1cc(C(=O)NCCC(=O)NC2CCCCCCC2)cc(OC)c1OC` the value was 2 µM [falling, single point].
For `COc1ccc(C2=NOC(C(=O)Nc3cc(C)nn3-c3ccccc3)C2)cc1OC` (stereo unspecified) the value was 2.51 µM [rising, full curve].
For `CCOc1nc(C)ccc1-c1noc(-c2ccco2)n1` the value was 6.31 µM [rising, partial curve].
`Cc1cccc(Cn2c(SCC(=O)Nc3ccccc3)nc3c2c(=O)[nH]c(=O)n3C)c1`: the AC50 was 10 µM [rising, partial curve].
Take `Cc1c(NC(=O)COC(=O)c2cc3c4ccccc4n(C)c3s2)c(=O)n(-c2ccccc2)n1C`: the AC50 is 1 µM [rising, partial curve].
With `Cc1ccc(C(=O)C2=C(O)C(=O)N(CCCN(C)C)C23C(=O)N(C)c2ccccc23)o1` (stereo unspecified), the AC50 was 1 µM [falling, partial curve].
Consider `Nc1nc(SCc2ccccc2)[nH]c(=O)c1-c1ccccc1`, for which the AC50 is 0.00398 µM [falling, full curve, poor fit].
With `CCc1c(C)c(C#N)c2nc3ccccc3n2c1Nc1c(C)n(C)n(-c2ccccc2)c1=O`, the AC50 is 25.1 µM [rising, single point].
Next, `CCOc1ccccc1NC(=O)c1ccccc1-c1nc(-c2ccccc2OC)no1`: 0.02 µM [falling, full curve, poor fit]; `CN(CC[C@@H](Oc1ccc(-c2ccccc2)cc1)c1ccc(F)cc1)CC(=O)O`: 3.98 µM [falling, partial curve, poor fit].
As to `COCCNC(=O)CSc1nc2nc(C)cc(C)n2n1`, the AC50 is 0.01 µM [rising, full curve].
Next, `CN(Cc1ccco1)c1ncnc2ccc(-c3ccoc3)cc12`: 0.316 µM [falling, full curve].
For `Cc1noc(C)c1CSc1nnc(-c2cc(Cl)ccc2Cl)n1N` the value was 10 µM [rising, partial curve].
For `Cc1noc(C)c1-c1ccc2ncnc(N3CCN(C)CC3)c2c1` the value was 6.31 µM [rising, partial curve]; for `CN(C)c1ccc(C2=NOC(CN3C(=O)c4ccccc4S3(=O)=O)C2)cc1` (stereo unspecified), 10 µM [falling, partial curve]; for `Cn1cc(-c2nc3cnc(N4CCNCC4)nc3n(CCC#N)c2=O)c2ccccc21`, 10 µM [rising, partial curve].
For `CCOC(=O)CSc1ccc2nnc(-c3cccnc3)n2n1`, the AC50 is 12.6 µM [rising, partial curve].
`CCOc1ccccc1-n1c(SCC(=O)NC(C)CC)nnc1-c1ccoc1C` (stereo unspecified): the AC50 is 0.00398 µM [falling, full curve, poor fit].
For `Clc1cccc(Nc2c3c(nc4ncnn24)CCC3)c1` the value was 12.6 µM [rising, partial curve].
Next, `COc1ccc(CCn2c(=N)c(C(=O)NCc3ccco3)cc3c(=O)n4cccc(C)c4nc32)cc1`: 10 µM [rising, single point]; `Cn1c2ccccc2c2nnc(SCN3C(=O)c4ccccc4C3=O)nc21`: 3.16 µM [rising, single point].
For `COC(=O)CC1=C(C)C(=O)CC2C(C)(C)CCCC12C` (stereo unspecified) the value was 3.98 µM [falling, partial curve]; for `CCCCOC(=O)C(C#N)c1nc2ccccc2nc1N1CCN(Cc2ccc3c(c2)OCO3)CC1` (stereo unspecified), 25.1 µM [rising, single point]; for `COc1ccc2c(c1)S/C(=C\C(=O)c1ccncc1)N2C`, 12.6 µM [rising, single point].

The values above are taken from PubChem BioAssay AID662 (National Center for Advancing Translational Sciences (NCATS), 2007).
